Results deposited as PubChem BioAssay AID686938 (Drosophila RNAi Screening Center, 2013).
The deposit covers about 23,000 reagents; shown is an unselected part of those with a known target gene and a result. In the full data, 75 (0.33%) were called active. 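Raw plate signals without normalisation; calls rest on plate z-scores that were not deposited; ratio present for only 364 wells.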 The numbers tell different reagents against one gene apart. Not given: the dose of the treatment.

Assay: 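Knock-downs reducing store-operated calcium influx in Drosophila cells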 (primary screen)
Cells: Drosophila S2R+ cells
Knock-down reagent: long dsRNA against Drosophila genes, about 0.25 µg dsRNA per well, roughly 10,000 cells
Time to read-out: 5 days of knock-down before the calcium assay
Conditions: thapsigargin (SERCA pump blocker) to empty calcium stores; entry signal taken 4 min after adding it
Measured: 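Duplicate raw fluo-4 intensities per well from a plate reader, at rest and four minutes after thapsigargin emptied calcium stores; entry-to-rest ratio filled for only some wells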
Direction: calcium entry signal: higher = stronger calcium signal after store depletion; resting calcium signal: higher = higher resting calcium signal
Rule for the call: 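Called when the plate z-score of the entry-to-rest ratio, mean of duplicates, falls below −3; wells with low overall dye signal (Fmax z below −2) or more than five off-targets excluded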
Calls: active = strongly reduced calcium entry; inactive = no strong reduction

gene knocked down	reagent no.	calcium entry signal, replicate 1 (fluorescence units)	calcium entry signal, replicate 2 (fluorescence units)	resting calcium signal, replicate 1 (fluorescence units)	resting calcium signal, replicate 2 (fluorescence units)	call
mRpL54	1	3.39e7		1.66e7		inactive
Cpr30F	1	5.94e7		2.61e7		inactive
CG12780	1	4.41e7	4.36e7	2.27e7	1.85e7	inactive
Blos1	1	2.27e7	4.35e7	1.26e7	1.72e7	inactive
comm2	1	4.11e7	4.21e7	1.92e7	1.80e7	inactive
comm2	2	4.36e7	4.70e7	1.88e7	1.96e7	inactive
Nost	1	2.15e7	3.03e7	1.10e7	1.46e7	inactive
Nost	2	2.48e7	2.90e7	1.16e7	1.30e7	inactive
ltl	1	2.98e7	3.80e7	1.58e7	1.65e7	inactive
ltl	2	3.01e7	3.55e7	1.52e7	1.60e7	inactive
COX4	1	4.77e7		2.66e7		inactive
CG13775	1	3.12e7	2.75e7	1.46e7	1.20e7	inactive
CG6583	1	3.30e7	2.10e7	1.51e7	1.10e7	inactive
CG5850	1	4.51e7		2.20e7		inactive
CG9759	1	3.21e7	4.22e7	1.52e7	1.79e7	inactive
CG3817	1	2.58e7	2.93e7	1.30e7	1.56e7	inactive
Flad2	1	3.12e7	2.23e7	1.50e7	1.07e7	inactive
ETHR	1	2.76e7	3.36e7	3.58e7	1.52e7	inactive

Targets above whose target name starts with L or l:
gene knocked down	reagent no.	calcium entry signal, replicate 1 (fluorescence units)	calcium entry signal, replicate 2 (fluorescence units)	resting calcium signal, replicate 1 (fluorescence units)	resting calcium signal, replicate 2 (fluorescence units)	call
ltl	1	2.98e7	3.80e7	1.58e7	1.65e7	inactive
ltl	2	3.01e7	3.55e7	1.52e7	1.60e7	inactive

Additional entries follow.
gene knocked down	reagent no.	calcium entry signal, replicate 1 (fluorescence units)	calcium entry signal, replicate 2 (fluorescence units)	resting calcium signal, replicate 1 (fluorescence units)	resting calcium signal, replicate 2 (fluorescence units)	call
NaPi-III	1	3.78e7	3.12e7	2.53e7	1.46e7	inactive
NaPi-III	2	3.61e7	4.97e7	1.98e7	2.55e7	inactive
NaPi-III	3	2.07e7	2.86e7	1.14e7	1.20e7	inactive
Rpi	1	3.55e7	3.31e7	1.90e7	1.59e7	inactive
IP3K1	1	5.62e7		2.48e7		inactive
Rab11	1	3.79e7	4.40e7	7.06e7	2.06e7	inactive
Cdc23	1	2.52e7		1.99e7		active
hig	1	2.62e7	6.71e7	1.18e7	2.78e7	inactive
hig	2	3.02e7	4.45e7	1.48e7	2.04e7	inactive
hig	3	5.69e7	4.25e7	3.02e7	2.03e7	inactive
Ugt35C1	1	3.35e7	4.55e7	1.57e7	2.05e7	inactive
CG14854	1	2.69e7	4.11e7	1.44e7	5.43e7	inactive
Got2	1	9.08e7		2.39e7		inactive
Mer	1	2.75e7	2.34e7	1.63e7	1.15e7	inactive
MFS9	1	3.41e7	3.56e7	1.72e7	1.53e7	inactive
gdrd	1	3.86e7	4.80e7	1.75e7	1.90e7	inactive
CG1486	1	4.58e7	4.83e7	2.05e7	2.09e7	inactive
Arpc3A	1	2.45e7	3.22e7	1.24e7	6.05e7	inactive
zf30C	1	4.27e7		1.96e7		inactive
CG7251	1	4.68e7		2.21e7		inactive
MrgBP	1	2.03e7	2.80e7	1.25e7	1.26e7	active
sunz	1	4.77e7	3.34e7	2.28e7	1.60e7	inactive
